No constants are given. Whether binding was seen depends on the method and setting. Some entries that bind do so weakly or less than the wild type.
Key:
Assay in all cases: two-hybrid; array-based yeast two-hybrid screens; each protein as bait (Gal4 DNA-binding domain) and as prey (Gal4 activation domain), N- and C-terminal fusions; bait-prey vector pairs pDEST32-pDEST22, pGBKT7g-pGADT7g, pGBKT7g-pGADCg, pGBKCg-pGADCg, pGBKCg-pGADT7g; ten configurations a pair; positives retested
W (bacteriophage lambda) = biological target: T1, W (bacteriophage lambda) (UniProt P68660)
T1 sequence: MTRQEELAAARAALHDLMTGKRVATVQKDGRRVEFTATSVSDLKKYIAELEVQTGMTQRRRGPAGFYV

By UniProt entry, the sequences of proteins in these tests, tags left out.
UniProt P03734: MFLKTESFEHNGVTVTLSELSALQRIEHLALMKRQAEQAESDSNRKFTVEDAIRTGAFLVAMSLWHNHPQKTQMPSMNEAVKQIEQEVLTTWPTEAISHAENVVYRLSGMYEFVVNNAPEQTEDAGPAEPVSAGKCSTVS
UniProt P03710: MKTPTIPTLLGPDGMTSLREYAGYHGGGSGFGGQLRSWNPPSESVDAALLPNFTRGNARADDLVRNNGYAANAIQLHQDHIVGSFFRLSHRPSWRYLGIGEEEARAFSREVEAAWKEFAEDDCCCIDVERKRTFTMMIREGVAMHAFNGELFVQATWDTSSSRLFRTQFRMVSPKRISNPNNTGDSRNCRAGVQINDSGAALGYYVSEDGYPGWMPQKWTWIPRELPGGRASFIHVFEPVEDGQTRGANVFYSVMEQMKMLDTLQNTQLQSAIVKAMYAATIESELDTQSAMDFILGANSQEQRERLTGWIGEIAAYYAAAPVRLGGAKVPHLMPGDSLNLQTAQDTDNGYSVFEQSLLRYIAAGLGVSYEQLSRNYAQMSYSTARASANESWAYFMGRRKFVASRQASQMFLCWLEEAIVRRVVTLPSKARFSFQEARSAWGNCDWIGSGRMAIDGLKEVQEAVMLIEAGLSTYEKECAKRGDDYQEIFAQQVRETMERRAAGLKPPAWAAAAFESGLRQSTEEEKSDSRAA

[1] = biological target: T2, major tail protein V (bacteriophage lambda) (UniProt P03733)
T2 sequence: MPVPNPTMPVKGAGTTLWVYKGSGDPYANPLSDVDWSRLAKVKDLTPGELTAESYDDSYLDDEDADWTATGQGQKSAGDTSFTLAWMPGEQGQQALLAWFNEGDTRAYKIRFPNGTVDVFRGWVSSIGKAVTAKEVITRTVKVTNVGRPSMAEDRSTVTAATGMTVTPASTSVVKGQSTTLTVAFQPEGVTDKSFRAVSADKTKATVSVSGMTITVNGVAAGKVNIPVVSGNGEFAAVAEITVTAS

M (bacteriophage lambda) = biological target: T3, M (bacteriophage lambda) (UniProt P03737)
T3 sequence: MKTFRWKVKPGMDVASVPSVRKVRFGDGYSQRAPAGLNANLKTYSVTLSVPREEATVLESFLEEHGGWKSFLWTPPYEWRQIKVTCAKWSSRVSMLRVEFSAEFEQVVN

[2] = biological target: G, a tail protein (bacteriophage lambda) (UniProt P03734)
[3] = biological target: T4, Integrase (Int) (bacteriophage lambda) (UniProt P03700)
T4 sequence: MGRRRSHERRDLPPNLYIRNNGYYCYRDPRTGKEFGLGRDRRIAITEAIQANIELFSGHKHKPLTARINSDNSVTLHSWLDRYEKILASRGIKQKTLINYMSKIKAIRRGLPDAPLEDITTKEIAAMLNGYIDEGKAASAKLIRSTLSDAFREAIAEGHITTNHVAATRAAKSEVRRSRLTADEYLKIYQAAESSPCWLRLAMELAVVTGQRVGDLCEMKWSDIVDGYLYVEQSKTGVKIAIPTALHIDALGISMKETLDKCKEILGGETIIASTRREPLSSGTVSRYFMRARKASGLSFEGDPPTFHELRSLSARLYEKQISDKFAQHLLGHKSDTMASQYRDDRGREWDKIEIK

[4] = biological target: T5, CIII (bacteriophage lambda), P03044; conditions: remark: other sources report otherwise
T5 chain: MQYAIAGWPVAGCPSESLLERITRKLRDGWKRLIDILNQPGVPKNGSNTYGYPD

[5] = biological target: T6, DNA packaging protein A (bacteriophage lambda) (UniProt P03708)
T6 sequence: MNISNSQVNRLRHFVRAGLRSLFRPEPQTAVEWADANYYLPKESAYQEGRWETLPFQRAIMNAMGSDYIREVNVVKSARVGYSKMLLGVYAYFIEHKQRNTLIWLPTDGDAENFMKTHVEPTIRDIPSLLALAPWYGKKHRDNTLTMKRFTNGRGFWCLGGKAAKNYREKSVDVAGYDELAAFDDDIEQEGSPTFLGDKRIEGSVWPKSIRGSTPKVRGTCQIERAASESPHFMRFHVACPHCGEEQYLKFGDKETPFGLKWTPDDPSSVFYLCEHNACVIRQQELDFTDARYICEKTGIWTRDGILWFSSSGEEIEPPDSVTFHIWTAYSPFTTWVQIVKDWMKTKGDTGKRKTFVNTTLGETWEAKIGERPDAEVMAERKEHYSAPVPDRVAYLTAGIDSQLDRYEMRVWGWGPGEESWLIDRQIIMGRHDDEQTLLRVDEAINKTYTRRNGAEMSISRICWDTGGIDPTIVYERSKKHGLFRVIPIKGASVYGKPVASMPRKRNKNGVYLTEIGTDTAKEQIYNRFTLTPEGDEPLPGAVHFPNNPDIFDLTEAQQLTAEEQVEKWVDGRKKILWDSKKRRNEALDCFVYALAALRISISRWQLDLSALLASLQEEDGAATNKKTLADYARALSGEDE

[6] = biological target: T7, RexB (bacteriophage lambda) (UniProt P03759)
T7 sequence: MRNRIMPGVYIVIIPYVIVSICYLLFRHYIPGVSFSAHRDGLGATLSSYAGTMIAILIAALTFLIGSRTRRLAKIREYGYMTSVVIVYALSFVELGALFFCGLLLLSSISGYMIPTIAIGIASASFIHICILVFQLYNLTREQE

[7] = compound: T8, O (bacteriophage lambda) (UniProt P03688)
T8 sequence: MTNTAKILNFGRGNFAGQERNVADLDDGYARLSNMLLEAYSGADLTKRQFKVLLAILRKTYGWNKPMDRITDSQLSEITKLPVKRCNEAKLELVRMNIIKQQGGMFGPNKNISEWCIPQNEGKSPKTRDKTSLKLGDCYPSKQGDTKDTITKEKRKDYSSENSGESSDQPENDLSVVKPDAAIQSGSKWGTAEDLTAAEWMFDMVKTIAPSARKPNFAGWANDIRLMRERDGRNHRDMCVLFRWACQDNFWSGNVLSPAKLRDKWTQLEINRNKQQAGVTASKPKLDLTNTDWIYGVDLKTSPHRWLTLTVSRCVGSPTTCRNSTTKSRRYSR

[8] = biological target: T9, antiterminator N (bacteriophage lambda) (UniProt P03045)
T9 sequence: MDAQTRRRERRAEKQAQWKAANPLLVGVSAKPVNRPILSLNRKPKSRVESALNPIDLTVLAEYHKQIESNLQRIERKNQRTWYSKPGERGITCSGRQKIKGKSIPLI

[9] = biological target: Bet (= β, strand annealing protein) (bacteriophage lambda) (UniProt P03698)
[10] = compound: T10, P (bacteriophage lambda) (UniProt P03689)
T10 sequence: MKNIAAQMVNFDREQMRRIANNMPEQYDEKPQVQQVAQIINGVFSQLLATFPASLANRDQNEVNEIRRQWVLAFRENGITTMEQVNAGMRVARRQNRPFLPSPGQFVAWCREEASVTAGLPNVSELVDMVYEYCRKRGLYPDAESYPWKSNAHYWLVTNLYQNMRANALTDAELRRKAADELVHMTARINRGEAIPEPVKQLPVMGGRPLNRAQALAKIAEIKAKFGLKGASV

portal protein B (from UniProt P03710 1-533)
binding (W (bacteriophage lambda)): binds

G, a tail protein (from UniProt P03734 1-140)
binding [1]: binds | binding (M (bacteriophage lambda)): binds | binding [2]: binds | binding [3]: binds

B1: CIII, P03044 1-54 (protein)
chain: T5 chain
binding [4]: no binding

B2: DNA packaging protein A (protein, UniProt P03708 1-641)
chain: T6 sequence
binding [5]: binds | binding [3]: binds | binding [6]: binds

B3: P (protein, UniProt P03689 1-233)
chain: T10 sequence
binding [7]: binds

B4: Bet (= β, strand annealing protein) (protein, UniProt P03698 1-261)
chain: MSTALATLAGKLAERVGMDSVDPQELITTLRQTAFKGDASDAQFIALLIVANQYGLNPWTKEIYAFPDKQNGIVPVVGVDGWSRIINENQQFDGMDFEQDNESCTCRIYRKDRNHPICVTEWMDECRREPFKTREGREITGPWQSHPKRMLRHKAMIQCARLAFGFAGIYDKDEAERIVENTAYTAERQPERDITPVNDETMQEINTLLIALDKTWDDDLLPLCSQIFRRDIRASSELTQAEAVKALGFLKQKAAEQKVAA
binding [5]: binds | binding [8]: binds | binding [3]: binds | binding [9]: binds | binding [10]: binds

From publication PMC3224144
